Counter-ions that a name gives are not always drawn. This is one part of the list. Single values are uncertain here, since repeats match poorly.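 In a drug-repurposing library screen, luminescence reads luciferase driven by eight TEAD-binding elements, stably integrated into human kidney-derived cells. Compounds scoring over five robust Z scores above the plate mean are called hits.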

The test system of this test is HEK293A TEAD-LUC reporter. The test can be described thus: TEAD-luciferase reporter activity (YAP activation), robust Z score vs plate; higher = stronger YAP/TEAD activation. The note with it: 24 h. On the technique in general: A reporter such as luciferase makes a cellular process visible.

Consider `O=C(Cc1ccc(-c2ccc(OCCN3CCOCC3)cc2)cn1)NCc1ccccc1`, for which the TEAD-luciferase reporter activity (compound concentration: 200 nM) is inactive: 1.32, the TEAD-luciferase reporter activity (compound concentration: 2 uM) is inactive: 1.98 and the TEAD-luciferase reporter activity (compound concentration: 10 uM) was active: 5.42.
For `CCOC(=O)N1c2ccc(C(F)(F)F)cc2[C@@H](N(Cc2cc(C(F)(F)F)cc(C(F)(F)F)c2)C(=O)OC)C[C@H]1CC`, the TEAD-luciferase reporter activity by setting is: (compound concentration: 200 nM) inactive: -0.68; (compound concentration: 10 uM) inactive: -1.02.
As for `CCOC(=O)N1c2ccc(C(F)(F)F)cc2[C@@H](N(Cc2cc(C(F)(F)F)cc(C(F)(F)F)c2)C(=O)OC)C[C@H]1CC` [Torcetrapib], the TEAD-luciferase reporter activity (compound concentration: 2 uM) was inactive: 0.364.
Turning to `COc1cc(CCc2ccc(C3=Cc4ccccc4C4=NCCN34)cc2)cc(OC)c1OC`, the TEAD-luciferase reporter activity is, setting by setting: (compound concentration: 200 nM) inactive: -1.01; (compound concentration: 2 uM) inactive: -1.09; (compound concentration: 10 uM) active: 5.92.
For the molecule `COc1ccc(OC2CN(CCC(C)C)C2)cc1`, the TEAD-luciferase reporter activity is, setting by setting: (compound concentration: 200 nM) inactive: -1.44; (compound concentration: 10 uM) inactive: 0.0219.
`CCN(CC)CCNC(=O)c1ccc(NS(C)(=O)=O)cc1` [Sematilide hydrochloride]: the TEAD-luciferase reporter activity (compound concentration: 2 uM) is inactive: -0.649.
Take `CCN(CC)CCNC(=O)c1ccc(NS(C)(=O)=O)cc1` [Sematilide monohydrochloride monohydrate]: the TEAD-luciferase reporter activity is, setting by setting: (compound concentration: 200 nM) inactive: -2.37; (compound concentration: 10 uM) inactive: 4.91.
As to `CCOc1ccc(-n2c([C@@H](C)N(Cc3cccnc3)C(=O)Cc3ccc(OC(F)(F)F)cc3)nc3ncccc3c2=O)cc1`, the TEAD-luciferase reporter activity by setting is: (compound concentration: 200 nM) inactive: -1.55; (compound concentration: 2 uM) inactive: 0.703; (compound concentration: 10 uM) inactive: 1.44.
For `COc1cc(N)c(Cl)cc1C(=O)NC1C[C@H]2CCC[C@@H](C1)N2Cc1ccc(F)cc1` (some centres not stated), in that order: inactive: -1.18, inactive: -0.0438 and inactive: -0.275.
Consider `CCO[C@@H](Cc1ccc(OCCn2c(C)ccc2-c2ccc(SC)cc2)cc1)C(=O)O` [Saroglitazar], for which the TEAD-luciferase reporter activity reads like this: (compound concentration: 200 nM) inactive: -0.21; (compound concentration: 2 uM) inactive: 2.62; (compound concentration: 10 uM) inactive: 4.
As for `CCO[C@@H](Cc1ccc(OCCn2c(C)ccc2-c2ccc(SC)cc2)cc1)C(=O)O`, the TEAD-luciferase reporter activity (compound concentration: 2 uM) was inactive: 0.173.
`c1ccc(C23OCC(Cn4c2nc2ccccc24)O3)cc1` (configuration not stated) [oxapadol]: the TEAD-luciferase reporter activity reads like this: (compound concentration: 200 nM) inactive: 0.078; (compound concentration: 2 uM) inactive: -0.478; (compound concentration: 10 uM) inactive: 0.123.
Consider `CC1(c2ccccc2)Cc2cc(OCC(=O)O)c(Cl)c(Cl)c2C1=O` (configuration not stated), for which the TEAD-luciferase reporter activity by setting is: (compound concentration: 200 nM) inactive: -1.4; (compound concentration: 2 uM) inactive: -1.24; (compound concentration: 10 uM) inactive: -0.375.
For `CCc1occc(=O)c1[O][V](=[O])[O]c1c(CC)occc1=O`, in that order: inactive: -0.632, inactive: -0.289 and inactive: 3.97.
For the molecule `CSCC(CC(=O)c1ccc(C)cc1)C(=O)O` (configuration not stated) [S-Methyl-KE-298], the TEAD-luciferase reporter activity (compound concentration: 200 nM) was inactive: -1.72, the TEAD-luciferase reporter activity (compound concentration: 2 uM) was inactive: -0.782 and the TEAD-luciferase reporter activity (compound concentration: 10 uM) is inactive: -1.23.
With `Cn1c(-c2ccccn2)c(C2CCCC2)c2ccc(C(=O)NC3(C(=O)Nc4ccc(/C=C/C(=O)O)cc4)CCC3)cc21`, the TEAD-luciferase reporter activity runs as follows: (compound concentration: 200 nM) inactive: -0.304; (compound concentration: 2 uM) inactive: -0.681; (compound concentration: 10 uM) inactive: 0.982.
For `CCOc1nc(N)nc2c1ncn2[C@@H]1O[C@@H]2COP(=O)(OC(C)C)O[C@H]2[C@@]1(C)F` (some centres not stated), in that order: inactive: -1.95, inactive: -0.81 and inactive: -0.956.
`Cc1cc(/C=C/c2cccs2)cc(C)c1OC(=O)CCC(=O)O`: the TEAD-luciferase reporter activity (compound concentration: 200 nM) is inactive: 0.821, the TEAD-luciferase reporter activity (compound concentration: 2 uM) is inactive: -1.07 and the TEAD-luciferase reporter activity (compound concentration: 10 uM) was inactive: 1.92.
On to `S=c1[nH]cnc2nc[nH]c12`, for which, where the note is “compound concentration: 2 uM”, the TEAD-luciferase reporter activity was inactive: 0.339.
On to `S=c1[nH]cnc2nc[nH]c12` [Mercaptopurine], for which the TEAD-luciferase reporter activity (compound concentration: 200 nM) is inactive: -1.32, the TEAD-luciferase reporter activity (compound concentration: 2 uM) is inactive: 2.37 and the TEAD-luciferase reporter activity (compound concentration: 10 uM) was inactive: -1.58.
For `O=C(c1ccc(-c2ccc(Nc3nc4ccc(F)cc4s3)c(F)c2)cc1)[C@H]1CCC[C@H]1C(=O)O`, in that order: inactive: -0.611, inactive: 0.0846 and inactive: 1.65.
In the same order, the values of `O=C1CCC(C(=O)O)N1` (configuration not stated) [Pyroglutamic acid] are inactive: -1.82, inactive: -1.35 and inactive: -0.68.
For `CCC(C)(C)C(=O)C(=O)N1CCCCC1C(=O)OC(CCc1ccc(OC)c(OC)c1)c1cccc(OCC(=O)Nc2c(/N=N/c3ccc(-c4ccc(/N=N/c5cc(S(=O)(=O)O)c6ccccc6c5N)cc4)cc3)cc(S(=O)(=O)O)c3ccccc23)c1` (configuration not stated), in that order: inactive: 1.25, inactive: -1.37 and inactive: -1.6.
As for `C=C[C@@H]1C[C@]1(NC(=O)[C@@H]1C[C@@H](OC(=O)N2Cc3cccc(F)c3C2)CN1C(=O)[C@@H](NC(=O)OC(C)(C)C)C(C)(C)C)C(=O)NS(=O)(=O)C1CC1`, the TEAD-luciferase reporter activity is inactive: -2.75 (compound concentration: 200 nM), inactive: -0.143 (compound concentration: 2 uM) and inactive: 0.341 (compound concentration: 10 uM).
For `Cc1cc(NC2CCCCC2)nc(-n2nc(C)cc2C)n1`, in that order: inactive: -0.375, inactive: -1.75 and inactive: 1.65.
In the same order, the values of `N#Cc1cc2nc(O)c(O)nc2cc1[N+](=O)[O-]` are inactive: -0.0223, inactive: 4.05 and inactive: -0.0522.
For `CNc1cccc(NC(=O)C(=O)O)c1C#N`, in that order: inactive: 0.424, inactive: 1.36 and inactive: -0.221.
For `O=C1NCc2ccccc2CC12CCCCN2Cc1ccc(O)cc1` (configuration not stated), the TEAD-luciferase reporter activity by setting is: (compound concentration: 200 nM) inactive: 0.363; (compound concentration: 10 uM) inactive: 0.253.
`COc1cc2nc3c(nc2cc1C(=O)[O-])c(C(=O)NCCN(C)C)c(O)c1ccccc13`: the TEAD-luciferase reporter activity (compound concentration: 200 nM) is inactive: 2.16 and the TEAD-luciferase reporter activity (compound concentration: 10 uM) is inactive: -1.22.
With `Cc1cccc2scc(Cn3c(SCCCC(=O)O)nc4ccccc43)c12`, the TEAD-luciferase reporter activity is, setting by setting: (compound concentration: 200 nM) inactive: -0.49; (compound concentration: 2 uM) inactive: -0.431; (compound concentration: 10 uM) active: 5.6.
In the same order, the values of `C[C@@H](O)[C@H](NC(=O)[C@H](Cc1ccccc1)NC(=O)[C@@H](NC(=O)[C@H](CCCCN)NC(=O)[C@@H](Cc1c[nH]c2ccccc12)NC(=O)[C@H](Cc1ccccc1)NC(=O)[C@H](Cc1ccccc1)NC(=O)[C@H](N)Cc1ccccc1)[C@@H](C)O)C(N)=O` are inactive: 1.11, inactive: -0.552 and inactive: -1.74.
Turning to `CCCCNc1ccc(C(=O)OCCN(C)C)cc1` [tetracaine, MicroParticle], the TEAD-luciferase reporter activity (compound concentration: 200 nM) was inactive: 0.703, the TEAD-luciferase reporter activity (compound concentration: 2 uM) is inactive: -0.89 and the TEAD-luciferase reporter activity (compound concentration: 10 uM) is inactive: 2.9.
`CCCOc1nc(N)c2ncn(C3CCCCC3)c2n1`: the TEAD-luciferase reporter activity reads like this: (compound concentration: 200 nM) inactive: 1.11; (compound concentration: 2 uM) inactive: -1.16; (compound concentration: 10 uM) inactive: -1.06.
Take `Oc1c(Cl)cc(Cl)c(Cl)c1Cc1c(O)c(Cl)cc(Cl)c1Cl`: the TEAD-luciferase reporter activity (compound concentration: 200 nM) was inactive: -0.0787, the TEAD-luciferase reporter activity (compound concentration: 2 uM) is inactive: -1.67 and the TEAD-luciferase reporter activity (compound concentration: 10 uM) was inactive: -0.605.
In the same order, the values of `Cc1c(-c2ccc(O)cc2)n(CCCCCCN2CCCC2)c2ccc(O)cc12` are inactive: -0.886, inactive: -1.16 and inactive: 1.69.

Source of the values: the supplement of paper PMC10735217.
